Test results: publication PMC6925144, “A prospective compound screening contest identified broader inhibitors for Sirtuin 1” (Scientific Reports, 2019)
In all, about 3,200 compounds were measured (“TSA(without NAD+) / Primary screening (TSA) / delta Tm (K)”: median about -0.07, highest 2% from about 0.37 on). This is one part of the list.

Chains of the proteins cited; added tags and fusions are not shown. Residues count along the entry.
UniProt Q96EB6, 2-747 limits assumed: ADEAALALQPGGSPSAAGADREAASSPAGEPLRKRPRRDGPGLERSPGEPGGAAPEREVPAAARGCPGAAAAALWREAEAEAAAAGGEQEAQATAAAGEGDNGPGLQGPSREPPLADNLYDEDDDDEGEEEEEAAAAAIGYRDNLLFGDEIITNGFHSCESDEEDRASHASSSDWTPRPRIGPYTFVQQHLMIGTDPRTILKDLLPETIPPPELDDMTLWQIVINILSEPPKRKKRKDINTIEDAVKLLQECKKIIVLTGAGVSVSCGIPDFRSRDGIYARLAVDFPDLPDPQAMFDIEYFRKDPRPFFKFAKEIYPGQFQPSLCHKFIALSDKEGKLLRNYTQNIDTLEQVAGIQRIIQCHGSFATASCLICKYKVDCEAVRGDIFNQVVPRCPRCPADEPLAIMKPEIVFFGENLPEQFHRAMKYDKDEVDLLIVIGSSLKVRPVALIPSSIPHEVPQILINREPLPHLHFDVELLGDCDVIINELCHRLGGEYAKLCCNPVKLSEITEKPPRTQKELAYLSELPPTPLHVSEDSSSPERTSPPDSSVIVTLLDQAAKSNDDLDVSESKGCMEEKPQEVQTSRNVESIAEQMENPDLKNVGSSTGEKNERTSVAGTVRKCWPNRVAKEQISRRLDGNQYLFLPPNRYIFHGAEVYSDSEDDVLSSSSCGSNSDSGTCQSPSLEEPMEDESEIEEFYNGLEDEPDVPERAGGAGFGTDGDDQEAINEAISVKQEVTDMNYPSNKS

Biological target: NAD-dependent deacetylase Sirtuin 1 (human, UniProt Q96EB6)
Test: primary screen, delta tm
Design: single well (n = 1)
Settings: 10 µM
Procedure, shortened: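 Thermal shift of Sirtuin 1 measured without NAD+, compound at 10 µM (n = 1); value is ΔTm, with hits defined as ΔTm > 0.45 K or < −1.5 K. Hits retested at 5, 10, 20 µM (n = 4) and counterscreened on bovine carbonic anhydrase and ABL1 SH2 domain.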

Question: With Cn1c(-c2ccccc2)c(C(=O)N2CCCC2)c2ccccc21 as the compound, how does the “TSA(without NAD+) / Primary screening (TSA) / delta Tm (K)” value read?
Answer: 0.16 K

Question: For O=C(O)c1ccc2[nH]c3c(c2c1)CNCC3, which “TSA(without NAD+) / Primary screening (TSA) / delta Tm (K)” value is on record?
Answer: -0.03 K

Question: For CC(O)CN1CCC(CN(C)Cc2cccc(C(N)=O)c2)CC1 (centres unmarked), which “TSA(without NAD+) / Primary screening (TSA) / delta Tm (K)” value is on record?
Answer: 0.13 K

Question: With NC(=O)CC1CCN(C(=O)CCc2c[nH]c3ccccc23)CC1 as the compound, how does the “TSA(without NAD+) / Primary screening (TSA) / delta Tm (K)” value read?
Answer: -0.03 K

Question: Which “TSA(without NAD+) / Primary screening (TSA) / delta Tm (K)” value does the source give for CC(=O)Nc1ccc(NC(=O)c2ccccc2SCC(=O)NC23CC4CC(CC(C4)C2)C3)cc1 here?
Answer: -0.21 K

Question: Which “TSA(without NAD+) / Primary screening (TSA) / delta Tm (K)” value does the source give for CCN1CCC(N)C1 (centres unmarked) here?
Answer: 0.08 K

Question: COc1ccc(N(C)S(=O)(=O)c2cccc(C(=O)Nc3ccc(Br)c(C(F)(F)F)c3)c2)cc1 was tested. Which “TSA(without NAD+) / Primary screening (TSA) / delta Tm (K)” value did it give?
Answer: 0.62 K

Question: How did the “TSA(without NAD+) / Primary screening (TSA) / delta Tm (K)” value turn out when CC(C)NS(=O)(=O)NC(C)C(=O)NCCc1c[nH]c2ccccc12 (centres unmarked) was run?
Answer: -0.05 K

Question: For CCN(CC)C1CCN(C(=O)Nc2cc(-n3cnnn3)ccc2F)C1 (centres unmarked), which “TSA(without NAD+) / Primary screening (TSA) / delta Tm (K)” value is on record?
Answer: -0.12 K

Question: Which “TSA(without NAD+) / Primary screening (TSA) / delta Tm (K)” value does the source give for CCc1c(C)c(C#N)c2nc3ccccc3n2c1Cl here?
Answer: -0.08 K

Question: Cc1nn2c(nc(N3CCN(C4CCS(=O)(=O)C4)CC3)c3ccccc32)c1Cl (centres unmarked) was tested. Which “TSA(without NAD+) / Primary screening (TSA) / delta Tm (K)” value did it give?
Answer: 0.27 K

Question: With O=C(CCc1ccccc1)Nc1ccccc1Cc1ccccc1 as the compound, how does the “TSA(without NAD+) / Primary screening (TSA) / delta Tm (K)” value read?
Answer: -0.12 K

Question: Which “TSA(without NAD+) / Primary screening (TSA) / delta Tm (K)” value does the source give for CC(C)N(CC(N)=O)Cc1sc2ccccc2c1Cl here?
Answer: -0.43 K

Question: How did the “TSA(without NAD+) / Primary screening (TSA) / delta Tm (K)” value turn out when COc1ccc(NC(=O)CSCC(=O)Nc2cccc(C)c2)cc1OCc1cn2ccccc2n1 was run?
Answer: -0.07 K

Question: For O=c1[nH]c2ccc(CNCc3ccsc3)cc2[nH]1, which “TSA(without NAD+) / Primary screening (TSA) / delta Tm (K)” value is on record?
Answer: -0.28 K

Question: For O=C(O)c1nc(Nc2ccc(Cl)cc2)c2ccccc2n1, which “TSA(without NAD+) / Primary screening (TSA) / delta Tm (K)” value is on record?
Answer: -0.15 K

Question: Which “TSA(without NAD+) / Primary screening (TSA) / delta Tm (K)” value does the source give for Cc1oc2nc[nH]c(=O)c2c1C(=O)NCc1ccc(OCc2ccccc2)cc1 here?
Answer: -0.12 K

Question: With c1ccc(-c2nnc(CSc3nnc(-c4cccs4)n3C3CC3)o2)cc1 as the compound, how does the “TSA(without NAD+) / Primary screening (TSA) / delta Tm (K)” value read?
Answer: 0.02 K

Question: Which “TSA(without NAD+) / Primary screening (TSA) / delta Tm (K)” value does the source give for O=C(CCc1c[nH]c2ccccc12)NCCc1ccco1 here?
Answer: -0.05 K

Question: With O=c1[nH]c(CSc2cc(Cl)ccc2Cl)nc2ccsc12 as the compound, how does the “TSA(without NAD+) / Primary screening (TSA) / delta Tm (K)” value read?
Answer: 0.02 K

Question: With O=C(NN/C=C1/C(=O)N(c2cccc(C(F)(F)F)c2)C(=O)c2ccccc21)c1cccc(S(=O)(=O)Nc2ccccc2Cl)c1 as the compound, how does the “TSA(without NAD+) / Primary screening (TSA) / delta Tm (K)” value read?
Answer: 1.45 K

Question: With O=C(CNc1cnc2ccccc2n1)N1CCCc2ccccc21 as the compound, how does the “TSA(without NAD+) / Primary screening (TSA) / delta Tm (K)” value read?
Answer: -0.03 K

Question: How did the “TSA(without NAD+) / Primary screening (TSA) / delta Tm (K)” value turn out when CC(=O)Nc1ccc(NCc2cc(=O)oc3c(C)c(O)ccc23)cc1Cl was run?
Answer: 0.02 K

Question: With O=C(OCc1cc(=O)n2ccccc2n1)c1ccccc1C(F)(F)F as the compound, how does the “TSA(without NAD+) / Primary screening (TSA) / delta Tm (K)” value read?
Answer: -0.18 K

Question: For OCC[C@@H](Nc1cncc(Cl)n1)c1ccccc1, which “TSA(without NAD+) / Primary screening (TSA) / delta Tm (K)” value is on record?
Answer: -0.12 K

Question: Which “TSA(without NAD+) / Primary screening (TSA) / delta Tm (K)” value does the source give for NC(=O)c1cccc(NC(=O)c2nn(Cc3ccccc3)c(=O)c3ccccc23)c1 here?
Answer: -0.03 K
